Assay results taken from patent US9458161B1, “TSPO ligands for cancer imaging and treatment” (Vanderbilt University, priority 2011, dated 2016).
For at least one compound, name, drawing or mass did not settle the structure.

Assay: HPLC radiometabolite analysis of plasma after [18F]PBR06
Assay type: in vivo, rat
Conditions: two minutes following injection
Method: Blood samples (200 μL) were collected (2, 25, 45 min) for radiometabolite analysis. Following centrifugation, plasma was extracted with acetonitrile:water (340 μL, 7.5:1, v/v). The mixture was centrifuged and the supernatant used for HPLC analysis. Radioanalysis was conducted as is known in the art. Radiochromatographic data were recorded and collected using a radioisotope detector (Bioscan, Washington, D.C., USA), decay-corrected to time zero of each radiochromatogram, and smoothed using a locally weighted scatter plot smoothing (LOWESS) method. The plasma time-activity curve (TAC) was corrected with the fraction of unchanged radioligand.
Arterial blood samples were collected to assay [^18F]PBR06 radiometabolites for correction of the AIF. FIG. 12 illustrates a typical activity corrected reversed-phase HPLC trace of a blood sample collected two minutes following injection of [^18F]PBR06. At this time point we noted the presence of both ^18F^− (retention time 2.8 min) and the parent ligand (10.1 min) in a respective ratio of ˜1:3.

Structure (SMILES): COc1ccc(OC)c(CN(C(=O)C[18F])c2ccccc2Oc2ccccc2)c1 [[^18F]PBR06]
- ratio 18F− : parent ligand in blood sample: ~1:3
